Laboratory results as given in PMC7862700.
The entries are a selection whose mix differs from that of the whole data set. For part of these data: At the low end of the ranking, values are background and their order means little. The list shows a part of the results. For part of these data: The exact form of the protein is not confirmed.

Sequences of proteins named here, by UniProt entry; tags and fusion partners are left off. A change or cut given only in a name is not applied to a line headed by its entry.
UniProt Q00613: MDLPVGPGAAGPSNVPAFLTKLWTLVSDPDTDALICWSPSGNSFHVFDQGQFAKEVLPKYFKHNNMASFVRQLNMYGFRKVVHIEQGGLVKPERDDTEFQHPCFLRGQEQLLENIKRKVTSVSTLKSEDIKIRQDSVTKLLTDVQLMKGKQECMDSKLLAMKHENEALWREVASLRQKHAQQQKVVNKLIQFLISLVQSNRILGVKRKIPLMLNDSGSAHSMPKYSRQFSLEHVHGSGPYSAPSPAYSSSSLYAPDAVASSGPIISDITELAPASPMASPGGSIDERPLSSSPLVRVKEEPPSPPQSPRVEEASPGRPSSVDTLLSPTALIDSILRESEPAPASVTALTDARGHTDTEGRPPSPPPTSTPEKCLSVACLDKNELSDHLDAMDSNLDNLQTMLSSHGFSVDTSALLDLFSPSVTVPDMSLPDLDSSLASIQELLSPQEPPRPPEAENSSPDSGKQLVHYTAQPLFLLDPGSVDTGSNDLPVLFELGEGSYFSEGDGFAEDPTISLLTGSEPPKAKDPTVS

Assays:
HSF1 = HSF1 (UniProt Q00613); assay: DAPPL (digital affinity profiling via proximity ligation, sequencing); details: 10 mM Tris-HCl pH 7.5, 50 mM NaCl, 1 mM DTT, 4% glycerol, room temperature, 30 min; GST-TFs on glutathione beads, 16-mer random dsDNA library, 0.1% …; high values mean tight binding; double strand, one strand shown; scale: fold enrichment (6-mer frequency, TF over GST control)
ELF2 = target: T1, ELF2 (UniProt Q15723); assay: as above; details: 10 mM Tris-HCl pH 7.5, 50 mM NaCl, 1 mM DTT, 4% glycerol, room temperature, 30 min; GST-TFs on glutathione beads, 16-mer random dsDNA library, 0.1% …; high values mean tight binding; double strand, one strand shown; scale: fold enrichment (6-mer frequency, TF over GST control)
T1 sequence: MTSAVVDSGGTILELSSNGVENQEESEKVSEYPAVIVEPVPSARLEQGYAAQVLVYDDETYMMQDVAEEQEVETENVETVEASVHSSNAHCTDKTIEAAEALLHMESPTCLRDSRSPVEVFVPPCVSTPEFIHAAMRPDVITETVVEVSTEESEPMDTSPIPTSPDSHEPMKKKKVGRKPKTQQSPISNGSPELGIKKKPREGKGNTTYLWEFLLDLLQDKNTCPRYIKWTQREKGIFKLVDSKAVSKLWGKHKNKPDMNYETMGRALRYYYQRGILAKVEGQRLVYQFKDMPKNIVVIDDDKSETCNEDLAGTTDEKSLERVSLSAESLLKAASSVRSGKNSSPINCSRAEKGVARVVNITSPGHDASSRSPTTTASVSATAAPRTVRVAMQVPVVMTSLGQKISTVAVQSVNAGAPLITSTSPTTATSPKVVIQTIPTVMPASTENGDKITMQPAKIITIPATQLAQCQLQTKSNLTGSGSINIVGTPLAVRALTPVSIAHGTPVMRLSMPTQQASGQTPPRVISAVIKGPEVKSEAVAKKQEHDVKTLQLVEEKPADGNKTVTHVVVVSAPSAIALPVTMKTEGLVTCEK

Sequence	binding signal (HSF1)	binding signal (ELF2)
TTAAGA	1.95	0.99
CCACCG	0.829	0.977
TATTAG	1.42	1.02
CTTAAT	2.31	1.26
CACCCA	0.806	0.97
ATGCCG	0.931	1.12
CGCACC	0.775	0.946
ATGGGG	0.885	1.05
GTACAA	0.936	1.06
TTACGC	1.39	1
ATGCCA	0.933	0.965
GTGCTG	0.772	0.851
TCTCAG	1.4	1.35
ACCCTG	0.94	0.996
TGGTGA	0.867	0.904
TACGGC	1.02	1.13
TGCGCC	0.969	1.08
CCAAAT	1.02	1.02
AAACAA	1.23	1.33
ACGTTT	1.05	1.23
GAACTT	2.03	1.87
CTGCGG	0.954	1.15
TTGCCC	1.2	1.28

Sequence	binding signal (HSF1)	binding signal (ELF2)
GCAACC	0.795	1.04
ACGAAT	1.39	1.14
ATAACG	0.938	1
GGATGG	0.837	1.05
CACTCA	0.922	1.12
CCAAAC	0.94	1.08
CTCCAG	1.65	1.11
ACTTCT	2.1	1.51
ACATGA	0.812	0.93
AGTTTG	0.798	0.932
TAGGAA	1.11	1.38
AGCTTA	1.94	1.13
ATAGAC	0.983	0.927
ATAGCG	0.852	0.999
GTCGAC	0.746	0.938
AGGAAG	0.64	2.03
TTGCAG	0.967	1.06
ATACAT	1.01	1.27
TCGTTT	1.02	1.18
ACAAAC	0.966	1.12
GCAGGT	0.753	0.852
CCGTCA	0.968	1.18
CACACC	0.757	1.02

Sequence	binding signal (HSF1)	binding signal (ELF2)
TATTGA	1.14	1.11
CCACCA	0.876	0.951
GTAGCG	0.743	0.898
ACTATT	1.33	1.35
AGTTGC	0.764	1.01
CAAATG	0.998	1.13
TTCCAC	1.83	1.39
CGAACA	1.76	1.09
ACAAAA	1.09	1.17
TAGCCT	1.43	1.2
CCGGTT	0.922	2.5
ACACAA	0.999	1.14
CGCACG	0.914	0.967
GTCACC	0.662	0.892
CCCAAG	0.948	0.986
AACACG	1.02	1.25
GCTCGA	1.74	1.08
TGGGTA	0.857	0.948
TAGCTT	1.4	1.29
TTACTT	1.41	1.73
ATATTG	1.19	1.33
TTCCAA	1.47	1.19
AACTGG	1.25	1.21

Sequence	binding signal (HSF1)	binding signal (ELF2)
CACCCC	0.914	1.24
TCGCTG	0.933	1.05
GTGCCG	0.658	0.887
ACCGGC	0.919	1.11
CCGGGT	0.568	1.57
CACACG	0.889	1.09
GTAATT	1.36	1.25
GCTGCT	1.13	1.22
TTTAGA	1.37	0.96
TGTTGC	1.02	1.3
ATGCGT	0.909	0.995
ACCACA	0.848	1.02
GTGACT	0.684	0.952
GCTGAC	0.792	1.08
GCCGCC	0.766	0.975
GTCTCG	1.55	1.2
AATTAC	1.43	1.33
AACGCG	0.943	1.01
GTTGCG	0.8	1.03
ACCTGG	1.2	1.23
TGCAAT	0.983	1.15
TCATCC	1.38	1.37
GTCACG	0.819	0.986

Record cards, from the list above. Order of values: binding signal (HSF1)	binding signal (ELF2)
CACCCC is listed as 0.914	1.24
TTCCAC is listed as 1.83	1.39
CCCAAG is listed as 0.948	0.986
GTCGAC is listed as 0.746	0.938

Next part:

Sequence	binding signal (HSF1)	binding signal (ELF2)
CCGCGG	0.722	0.964
TTCAAT	1.27	1.32
GTACGA	0.996	1.06
AGGGAA	0.898	1
ACTCAG	0.878	0.969
AGCTGC	1.04	1.07
ACAACA	0.976	1.25
CCACGA	1.12	1.08
GGACAT	0.766	1.34
AGTTTT	0.984	1.02
ACCCGA	1.21	1
GACCGG	0.543	1.29
AGCTCA	1.22	1.1
CAGCTA	0.952	0.984
GTGTAC	0.72	0.914
CATGCA	0.832	1.03
CTTATT	1.87	1.48
ACGATA	1.17	1.16
AGATGT	0.965	0.9
CATTAC	1.02	1.13
CAATGC	0.993	1.15
GACGAC	0.877	0.937
